# Legend:
# [1] = Encapsulation efficiency and loading capacity of solid lipid microspheres (UV after dissolving in chloroform); type: physicochemical; conditions: Lidocaine in Beeswax-Chitosan MSs; average of three experiments
# [2] = In vitro drug release from beeswax microspheres (Example 6); type: physicochemical; conditions: Lidocaine from Beeswax-Chitosan microspheres, 10 mM phosphate buffer pH 7.4, 37° C.
# Procedure: 10 mg of microspheres were mixed with 5 mL of H2O or buffer and placed in the incubator. Three samples of each formulation were run at same conditions. A 3 mL samples were withdrawn at predetermined time intervals and an equal volume of fresh dissolution medium was replaced.
# In vitro drug release for the obtained microspheres was studied in 5 ml of 10 mM buffer phosphate solution, pH 7.4 or in ddH2O at 37° C.
smiles,measurement,setting,value
CCN(CC)CC(=O)Nc1c(C)cccc1C [Lidocaine],loading capacity,[1],4.9%
same,period over which the remaining drug was released,[2],at least one week

# Source: patent US20230263754A1, “SOLID DISPERSIONS AND PARTICLES AND METHODS FOR CONTROLLED-RELEASE OF LIPID-SOLUBLE OR DISPESIBLE ACTIVES” (YISSUM RESEARCH DEVELOPMENT COMPANY OF THE HEBREW …, priority 2020, published 2023)
